Experimental data as given in PMC3548793.
These are yes or no findings as the source states them, for the method shown. Binding seen in cells or lysates may run through a third protein. Some entries that bind do so weakly or less than the wild type. Where a sequence is shown, tags or fusion partners need not be part of it.

By UniProt entry, the sequences of proteins in these tests, tags left out.
UniProt P68400: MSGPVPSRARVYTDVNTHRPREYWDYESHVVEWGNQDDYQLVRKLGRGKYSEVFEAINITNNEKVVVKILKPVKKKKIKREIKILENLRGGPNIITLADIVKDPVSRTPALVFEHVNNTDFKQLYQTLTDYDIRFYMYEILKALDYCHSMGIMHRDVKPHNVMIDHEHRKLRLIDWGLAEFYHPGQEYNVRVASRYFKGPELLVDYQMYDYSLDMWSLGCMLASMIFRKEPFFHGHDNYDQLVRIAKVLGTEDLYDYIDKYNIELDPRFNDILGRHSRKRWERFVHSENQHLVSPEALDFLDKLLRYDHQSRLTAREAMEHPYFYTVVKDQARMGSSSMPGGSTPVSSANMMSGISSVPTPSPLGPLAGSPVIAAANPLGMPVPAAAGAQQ

Target: T1, GFP-Sec31 (human) (UniProt O94979)
T1 sequence: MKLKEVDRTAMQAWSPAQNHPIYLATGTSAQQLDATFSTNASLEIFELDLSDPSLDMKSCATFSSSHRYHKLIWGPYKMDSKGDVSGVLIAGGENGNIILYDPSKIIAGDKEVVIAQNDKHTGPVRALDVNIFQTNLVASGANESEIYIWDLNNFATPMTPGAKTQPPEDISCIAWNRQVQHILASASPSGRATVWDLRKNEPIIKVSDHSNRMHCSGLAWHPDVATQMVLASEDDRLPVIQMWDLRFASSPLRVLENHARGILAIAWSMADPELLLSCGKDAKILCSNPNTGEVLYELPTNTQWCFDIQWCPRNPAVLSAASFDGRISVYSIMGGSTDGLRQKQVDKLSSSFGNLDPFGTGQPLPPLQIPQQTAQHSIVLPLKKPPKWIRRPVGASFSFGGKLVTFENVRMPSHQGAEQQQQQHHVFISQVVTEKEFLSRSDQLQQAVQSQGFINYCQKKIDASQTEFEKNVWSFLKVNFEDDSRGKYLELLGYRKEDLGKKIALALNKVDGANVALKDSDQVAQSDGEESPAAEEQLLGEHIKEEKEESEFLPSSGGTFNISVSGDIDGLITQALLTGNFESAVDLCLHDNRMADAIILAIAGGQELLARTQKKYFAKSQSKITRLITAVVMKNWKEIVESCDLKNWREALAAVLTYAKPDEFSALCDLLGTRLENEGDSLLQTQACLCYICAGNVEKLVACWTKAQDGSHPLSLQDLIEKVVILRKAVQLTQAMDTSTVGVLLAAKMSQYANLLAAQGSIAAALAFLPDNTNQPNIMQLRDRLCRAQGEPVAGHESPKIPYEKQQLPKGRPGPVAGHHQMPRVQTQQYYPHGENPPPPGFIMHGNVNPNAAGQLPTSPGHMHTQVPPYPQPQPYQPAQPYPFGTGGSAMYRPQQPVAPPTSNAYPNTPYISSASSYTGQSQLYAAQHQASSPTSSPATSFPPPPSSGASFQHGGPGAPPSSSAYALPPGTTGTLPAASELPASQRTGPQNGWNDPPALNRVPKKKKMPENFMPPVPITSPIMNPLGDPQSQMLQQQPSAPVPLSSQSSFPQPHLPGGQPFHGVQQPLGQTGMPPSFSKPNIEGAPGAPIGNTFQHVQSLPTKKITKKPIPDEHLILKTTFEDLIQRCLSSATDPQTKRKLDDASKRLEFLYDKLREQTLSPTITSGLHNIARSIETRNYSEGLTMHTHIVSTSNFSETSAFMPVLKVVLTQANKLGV
Assay: co-IP; HEK293 cells co-transfected with Myc-CK2 and GFP-Sec31, 48 h; lysed with 1 mM Ca++ in immunoprecipitation buffer; GFP-tagged protein immunoprecipitated with anti-GFP beads, blot with anti-Myc

- binding: binds
Substance: Myc-CK2 alpha 1 (from UniProt P68400 1-391) (enzyme)
